Source: publication PMC10308361

The chains behind the UniProt entries cited, without tags or fusion partners.
UniProt O60238: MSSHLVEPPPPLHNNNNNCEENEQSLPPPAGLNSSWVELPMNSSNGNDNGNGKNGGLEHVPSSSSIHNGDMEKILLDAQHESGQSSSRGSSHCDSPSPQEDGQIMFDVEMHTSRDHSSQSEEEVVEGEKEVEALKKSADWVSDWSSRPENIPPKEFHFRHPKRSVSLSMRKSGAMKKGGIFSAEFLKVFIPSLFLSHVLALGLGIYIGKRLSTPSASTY

Columns and labels:
[1] = target: MAC(BirA-HA-Strep-tagII)-BNIP3; experiment: proximity labelling; BioID: doxycycline-inducible BirA bait (48 h) in cells transduced with FBXL4-HA; 50 uM biotin 24 h; MLN4924 24 h where indicated; RIPA lysis; streptavidin magnetic beads; immunoblot
[2] = target: MAC(BirA-HA-Strep-tagII)-NIX (UniProt O60238); experiment: as above

binding [1]: binds
binding [2]: binds
B1: FBXL4 tagged with HA at its C-terminus, wild type (protein, UniProt Q9UKA2 1-621)
chain: MSPVFPMLTVLTMFYYICLRRRARTATRGEMMNTHRAIESNSQTSPLNAEVVQYAKEVVDFSSHYGSENSMSYTMWNLAGVPNVFPSSGDFTQTAVFRTYGTWWDQCPSASLPFKRTPPNFQSQDYVELTFEQQVYPTAVHVLETYHPGAVIRILACSANPYSPNPPAEVRWEILWSERPTKVNASQARQFKPCIKQINFPTNLIRLEVNSSLLEYYTELDAVVLHGVKDKPVLSLKTSLIDMNDIEDDAYAEKDGCGMDSLNKKFSSAVLGEGPNNGYFDKLPYELIQLILNHLTLPDLCRLAQTCKLLSQHCCDPLQYIHLNLQPYWAKLDDTSLEFLQSRCTLVQWLNLSWTGNRGFISVAGFSRFLKVCGSELVRLELSCSHFLNETCLEVISEMCPNLQALNLSSCDKLPPQAFNHIAKLCSLKRLVLYRTKVEQTALLSILNFCSELQHLSLGSCVMIEDYDVIASMIGAKCKKLRTLDLWRCKNITENGIAELASGCPLLEELDLGWCPTLQSSTGCFTRLAHQLPNLQKLFLTANRSVCDTDIDELACNCTRLQQLDILGTRMVSPASLRKLLESCKDLSLLDVSFCSQIDNRAVLELNASFPKVFIKKSFTQ

Results are given in words; binding and its absence hold for the method and conditions named. Binding seen in cells or lysates may run through a third protein. Here binding means that the protein was enriched with, or labelled near, the bait; the list need not be complete. Where a sequence is shown, tags or fusion partners need not be part of it.
